Substitutions are numbered along the chain they refer to. No constants are given. Whether binding was seen depends on the method and setting. Some results given as binding are weak or reduced against the parent protein; the word gives no strength.
B1: MICA-α3-iFv.1 (designed binder)
chain: EPHSLRYNLTVLSWDGSVQSGFLTEVHLDGQPFLRCDRQKCRAKPQGQWAEDVLGNKTWDRETRDLTGNGKDLRMTLAHIKDQKEGLHSLQEIRVCEIHEDNSTRSSQHFYYDGELFLSQNLETKEWTMPQSSRAQTLAMNVRNFLKEDAMKTKTHYHAMHADCLQELRRYLKSGVVLRRTVPPMVQVTRSEASGDRVTITCRASQDVSTAVAWYQQKPGKAPKLLIYSASFLYSGVPSRFSGSGSGTDFTLTISSLQPEDFATYYCQQSYTTPPTFGQGTKVEIKGGSSRSSSSGGGGSGGGGEVQLVESGGGLVQPGGSLRLSCAASGFTFTSTGISWVRQAPGKGLEWVGRIYPTNGSTNYADSVKGRFTISADTSKNTAYLQMNSLRAEDTAVYYCARTYGIYDLYVDYTEYVMDYWGQGTLVTVSSGGSSRSSSSGGGGSGGGGDIQMTQSPSSLSASGQITVTCRASGFYPWNITLSWRQDGVSLSHDTQQWGDVLPDGQGTYQTWVATRISQGEEQRFTCYMEHSGQHSTHPVPSGKGSHHHHHH
B2: M13 phage pKK97 displaying MICA α3 domain with loop 1 insert 5.2 (designed binder)
chain: TVPPMVNVTRGDTFTQSVTCRASGFYPWNITLSWRQDGVSLSHDTQQWGDVLPDGNGTYQTWVATRICQGEEQRFTCYMEHSGNHSTHPVPSGK
notes: also called 1-5.2; not shown: C-terminal portion of M13 gene III protein, fused at codon position 198
B3: M13 phage pKK101 displaying MICA α3 domain with loop 1 insert 3.3sp (designed binder)
chain: TVPPMVNVTSGGSGGGSRVPRGDSDLTSGGSGGGVTCRASGFYPWNITLSWRQDGVSLSHDTQQWGDVLPDGNGTYQTWVATRICQGEEQRFTCYMEHSGNHSTHPVPSGK
notes: also called 1-3.3sp; not shown: C-terminal portion of M13 gene III protein, fused at codon position 198
B4: M13 phage pKK102 displaying MICA α3 domain with loop 1 insert 5.1sp (designed binder)
chain: B3 chain with R18V, V19T, P20R, R21G, G22D, D23T, S24F, D25T, L26Q, T27S
notes: also called 1-5.1sp; not shown: C-terminal portion of M13 gene III protein, fused at codon position 198
B5: M13 phage pKK103 displaying MICA α3 domain with loop 1 insert 5.3sp (designed binder)
chain: B3 chain with R18H, V19L, P20A, S24D, D25L, L26T, T27Y
notes: also called 1-5.3sp; not shown: C-terminal portion of M13 gene III protein, fused at codon position 198
B6: M13 phage pKK104 displaying MICA α3 domain with loop 3 insert 3.2sp (designed binder)
chain: TVPPMVNVTRSEASEGNITVTCRASGFYPWNITLSWRQDGVSLSHDTQQWGDVLPDGNGTYQTWVATRISGGSGGGSTSRGDHPRTQSGGSGGGCYMEHSGNHSTHPVPSGK
notes: also called 3-3.2sp; not shown: C-terminal portion of M13 gene III protein, fused at codon position 198
B7: M13 phage pKK105 displaying MICA α3 domain with loop 3 insert 3.3sp (designed binder)
chain: B6 chain with T78R, S79V, R80P, G81R, D82G, H83D, P84S, R85D, T86L, Q87T
notes: also called 3-3.3sp; not shown: C-terminal portion of M13 gene III protein, fused at codon position 198
B8: M13 phage pKK107 displaying MICA α3 domain with tight loop 1 insert T-3.1 (designed binder)
chain: TVPPMVNTSRGDHPRTQCRASGFYPWNITLSWRQDGVSLSHDTQQWGDVLPDGNGTYQTWVATRICQGEEQRFTCYMEHSGNHSTHPVPSGK
notes: also called 1-T-3.1; not shown: C-terminal portion of M13 gene III protein, fused at codon position 198
B9: M13 phage pKK110 displaying MICA α3 domain with tight loop 1 insert T-5.1 (designed binder)
chain: B8 chain with T8V, S9T, H13T, P14F, R15T, T16Q, Q17S
notes: also called 1-T-5.1; not shown: C-terminal portion of M13 gene III protein, fused at codon position 198
B10: M13 phage pKK111 displaying MICA α3 domain with tight loop 1 insert T-5.3 (designed binder)
chain: B8 chain with T8H, S9L, R10A, G11R, D12G, H13D, P14D, R15L, Q17Y
notes: also called 1-T-5.3; not shown: C-terminal portion of M13 gene III protein, fused at codon position 198

Chains of the proteins cited; added tags and fusions are not shown. Lines headed by an entry give the natural chain unless they say otherwise; changes in a name come on top. Residues count along the entry.
UniProt P26718: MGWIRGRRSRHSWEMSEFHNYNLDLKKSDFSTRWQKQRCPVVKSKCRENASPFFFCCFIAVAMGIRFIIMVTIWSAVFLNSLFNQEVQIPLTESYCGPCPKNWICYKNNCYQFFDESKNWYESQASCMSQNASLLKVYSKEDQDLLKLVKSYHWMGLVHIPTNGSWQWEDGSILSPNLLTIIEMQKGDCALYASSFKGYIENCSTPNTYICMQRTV
UniProt P22607, residues 23-375: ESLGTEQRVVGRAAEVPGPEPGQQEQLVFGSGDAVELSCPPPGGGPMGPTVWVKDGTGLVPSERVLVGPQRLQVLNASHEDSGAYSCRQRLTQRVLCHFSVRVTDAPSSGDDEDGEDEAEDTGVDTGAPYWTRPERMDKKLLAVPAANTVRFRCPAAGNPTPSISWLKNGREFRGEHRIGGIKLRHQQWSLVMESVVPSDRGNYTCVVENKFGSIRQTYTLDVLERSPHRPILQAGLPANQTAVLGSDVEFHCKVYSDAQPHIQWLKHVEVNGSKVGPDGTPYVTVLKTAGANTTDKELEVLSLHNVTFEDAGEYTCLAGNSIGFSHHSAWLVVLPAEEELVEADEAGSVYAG
UniProt P06756: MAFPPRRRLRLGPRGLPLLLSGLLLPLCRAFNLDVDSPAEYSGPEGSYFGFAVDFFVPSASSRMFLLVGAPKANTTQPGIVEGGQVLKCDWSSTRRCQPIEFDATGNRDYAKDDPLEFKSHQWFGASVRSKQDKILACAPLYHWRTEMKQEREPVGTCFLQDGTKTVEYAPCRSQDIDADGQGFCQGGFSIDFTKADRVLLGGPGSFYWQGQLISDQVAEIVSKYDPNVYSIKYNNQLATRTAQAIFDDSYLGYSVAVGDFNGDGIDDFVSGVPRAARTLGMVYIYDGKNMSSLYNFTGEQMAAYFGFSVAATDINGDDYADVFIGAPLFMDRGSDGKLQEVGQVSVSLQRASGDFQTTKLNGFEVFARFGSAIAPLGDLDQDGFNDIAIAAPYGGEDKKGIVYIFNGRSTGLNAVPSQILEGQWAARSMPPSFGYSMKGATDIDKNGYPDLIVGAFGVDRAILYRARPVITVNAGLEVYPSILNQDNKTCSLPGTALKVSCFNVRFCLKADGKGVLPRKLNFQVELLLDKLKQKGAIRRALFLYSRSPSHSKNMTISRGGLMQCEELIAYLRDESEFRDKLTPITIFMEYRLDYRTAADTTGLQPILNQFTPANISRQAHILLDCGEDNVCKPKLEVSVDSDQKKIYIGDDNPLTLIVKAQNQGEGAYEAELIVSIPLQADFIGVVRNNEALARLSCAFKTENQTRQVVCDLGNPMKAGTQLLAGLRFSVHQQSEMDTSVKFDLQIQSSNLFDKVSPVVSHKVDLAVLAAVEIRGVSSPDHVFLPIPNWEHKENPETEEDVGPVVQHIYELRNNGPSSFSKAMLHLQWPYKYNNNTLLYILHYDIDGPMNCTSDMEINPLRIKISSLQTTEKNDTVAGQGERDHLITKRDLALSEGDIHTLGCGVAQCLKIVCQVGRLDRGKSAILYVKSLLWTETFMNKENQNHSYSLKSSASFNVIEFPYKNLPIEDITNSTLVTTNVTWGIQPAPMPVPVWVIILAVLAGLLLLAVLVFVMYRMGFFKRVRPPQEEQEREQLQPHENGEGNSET

Experiments:
[1] = molecular target: NKG2D-Fc (detection reagent of the FGFR3 ELISA) (Homo sapiens (Human)) (UniProt P26718); experiment: ELISA, coated FGFR3, detected with NKG2D-Fc
FGFR3 (coated on wells) [2] = molecular target: FGFR3 (coated on wells) (UniProt P22607); experiment: ELISA, coated FGFR3, detected with NKG2D-Fc
FGFR3 (coated on wells) [3] = molecular target: FGFR3 (coated on wells) (UniProt P22607); experiment: ELISA on FGFR3-coated wells (2 ug/ml), bound sMICA detected with NKG2D-Fc and anti-Fc-HRP
[4] = molecular target: NKG2D-Fc (detection reagent of the FGFR3 ELISA) (Homo sapiens (Human)) (UniProt P26718); experiment: ELISA, coated FGFR3 (2 ug/ml), NKG2D-Fc and anti-Fc-HRP
FGFR3 (coated on wells) [5] = molecular target: FGFR3 (coated on wells) (UniProt P22607); experiment: as above
integrin αVβ3 = molecular target: T1, integrin αVβ3 (UniProt P06756 31-992; P05106 27-718); experiment: phage ELISA, coated integrin, anti-M13-HRP
T1 construct: Coated on the ELISA plate

integrin αVβ5 = molecular target: T2, integrin αVβ5 (UniProt P06756 31-992; P18084 24-719); experiment: phage ELISA, coated integrin, anti-M13-HRP
T2 construct: Coated on the ELISA plate

Binder | binding (integrin αVβ3) | binding (integrin αVβ5) | also measured
B1 | – | – | binding [1]: binds; binding (FGFR3 (coated on wells) [2]): binds; binding (FGFR3 (coated on wells) [3]): binds; binding [4]: binds; binding (FGFR3 (coated on wells) [5]): binds
B2 | binds | binds | –
B3 | binds | binds | –
B4 | binds | binds | –
B5 | binds | binds | –
B6 | binds | binds | –
B7 | binds | binds | –
B8 | binds | binds | –
B9 | binds | binds | –
B10 | binds | binds | –

Source: US20150165065A1 (AVIDBIOTICS, published 2015)
